Source: the supplement of paper PMC10849652
Some of the results follow.

The chains behind the UniProt entries cited, without tags or fusion partners. Where a name states a change or a piece, a line headed by the entry shows the natural chain unless it says otherwise.
UniProt P11940, whole entry, looked up: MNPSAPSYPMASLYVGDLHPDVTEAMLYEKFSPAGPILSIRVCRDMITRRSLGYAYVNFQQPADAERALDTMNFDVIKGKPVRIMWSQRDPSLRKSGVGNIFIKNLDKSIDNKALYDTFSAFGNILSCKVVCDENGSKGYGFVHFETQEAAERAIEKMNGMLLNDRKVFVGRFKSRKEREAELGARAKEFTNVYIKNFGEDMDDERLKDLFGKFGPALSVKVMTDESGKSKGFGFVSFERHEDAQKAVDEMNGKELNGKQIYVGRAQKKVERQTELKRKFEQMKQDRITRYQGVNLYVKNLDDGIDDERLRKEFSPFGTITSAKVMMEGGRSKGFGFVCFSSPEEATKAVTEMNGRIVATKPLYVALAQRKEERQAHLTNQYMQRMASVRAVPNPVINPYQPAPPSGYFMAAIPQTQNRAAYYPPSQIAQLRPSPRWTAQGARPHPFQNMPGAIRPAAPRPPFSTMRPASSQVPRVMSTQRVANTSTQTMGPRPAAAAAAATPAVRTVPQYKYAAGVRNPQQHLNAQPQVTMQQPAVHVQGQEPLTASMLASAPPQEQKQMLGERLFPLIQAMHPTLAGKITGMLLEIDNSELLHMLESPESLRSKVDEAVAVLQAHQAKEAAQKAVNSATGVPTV
UniProt P61970, whole entry, looked up: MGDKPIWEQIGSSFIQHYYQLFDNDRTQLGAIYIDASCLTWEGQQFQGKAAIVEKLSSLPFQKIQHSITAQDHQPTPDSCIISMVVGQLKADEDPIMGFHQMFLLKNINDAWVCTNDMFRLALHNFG
UniProt Q6N063: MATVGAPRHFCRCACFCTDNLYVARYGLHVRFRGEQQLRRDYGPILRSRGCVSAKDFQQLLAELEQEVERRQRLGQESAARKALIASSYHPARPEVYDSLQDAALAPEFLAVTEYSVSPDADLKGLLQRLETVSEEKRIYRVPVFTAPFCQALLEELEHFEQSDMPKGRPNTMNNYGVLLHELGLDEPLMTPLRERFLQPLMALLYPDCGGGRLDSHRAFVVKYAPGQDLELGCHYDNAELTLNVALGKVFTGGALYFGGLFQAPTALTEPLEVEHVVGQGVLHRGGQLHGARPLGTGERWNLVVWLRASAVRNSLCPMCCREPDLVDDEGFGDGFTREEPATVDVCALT
UniProt Q9NWT1: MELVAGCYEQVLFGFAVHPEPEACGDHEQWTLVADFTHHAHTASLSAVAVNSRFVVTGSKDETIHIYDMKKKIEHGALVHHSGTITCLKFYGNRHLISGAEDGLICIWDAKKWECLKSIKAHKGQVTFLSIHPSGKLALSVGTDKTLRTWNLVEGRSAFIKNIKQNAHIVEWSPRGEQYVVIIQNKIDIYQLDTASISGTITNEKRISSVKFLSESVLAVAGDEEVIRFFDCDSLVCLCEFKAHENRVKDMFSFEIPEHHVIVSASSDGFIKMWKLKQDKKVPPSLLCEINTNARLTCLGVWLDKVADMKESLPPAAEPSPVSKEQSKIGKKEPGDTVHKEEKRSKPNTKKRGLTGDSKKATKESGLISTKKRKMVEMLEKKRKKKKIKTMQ
UniProt Q9NPF4: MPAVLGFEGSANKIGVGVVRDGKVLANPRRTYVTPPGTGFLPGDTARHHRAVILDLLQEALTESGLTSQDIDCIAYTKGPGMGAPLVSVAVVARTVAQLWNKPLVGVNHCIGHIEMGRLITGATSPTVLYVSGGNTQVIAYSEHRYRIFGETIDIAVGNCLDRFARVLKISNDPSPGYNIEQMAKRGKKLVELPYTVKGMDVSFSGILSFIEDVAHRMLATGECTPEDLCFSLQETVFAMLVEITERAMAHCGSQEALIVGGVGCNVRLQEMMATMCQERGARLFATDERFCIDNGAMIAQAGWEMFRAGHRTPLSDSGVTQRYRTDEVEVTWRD
UniProt Q9H813: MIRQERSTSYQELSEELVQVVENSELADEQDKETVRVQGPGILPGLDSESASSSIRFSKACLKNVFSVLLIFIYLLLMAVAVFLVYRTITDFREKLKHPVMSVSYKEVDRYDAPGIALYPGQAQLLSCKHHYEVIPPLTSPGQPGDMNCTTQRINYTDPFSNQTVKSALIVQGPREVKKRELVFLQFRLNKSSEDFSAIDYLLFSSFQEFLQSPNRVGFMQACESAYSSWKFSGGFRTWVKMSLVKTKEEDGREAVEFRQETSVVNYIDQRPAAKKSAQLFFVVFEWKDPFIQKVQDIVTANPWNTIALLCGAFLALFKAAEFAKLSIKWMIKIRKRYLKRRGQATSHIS
UniProt Q6QHF9: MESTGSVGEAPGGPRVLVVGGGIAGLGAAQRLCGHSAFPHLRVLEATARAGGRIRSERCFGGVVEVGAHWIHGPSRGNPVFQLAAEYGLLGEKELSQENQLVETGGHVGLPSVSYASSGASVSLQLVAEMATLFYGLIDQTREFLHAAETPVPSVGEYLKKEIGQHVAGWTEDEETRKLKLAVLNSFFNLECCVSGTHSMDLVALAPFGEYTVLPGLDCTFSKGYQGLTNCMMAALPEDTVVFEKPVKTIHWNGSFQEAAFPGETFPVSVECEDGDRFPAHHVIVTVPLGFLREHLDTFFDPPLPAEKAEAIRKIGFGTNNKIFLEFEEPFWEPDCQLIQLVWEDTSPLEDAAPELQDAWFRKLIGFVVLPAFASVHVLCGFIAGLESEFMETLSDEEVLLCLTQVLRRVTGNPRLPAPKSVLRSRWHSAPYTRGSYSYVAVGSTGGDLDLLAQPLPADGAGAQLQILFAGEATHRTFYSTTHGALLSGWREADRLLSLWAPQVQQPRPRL
UniProt Q8N573: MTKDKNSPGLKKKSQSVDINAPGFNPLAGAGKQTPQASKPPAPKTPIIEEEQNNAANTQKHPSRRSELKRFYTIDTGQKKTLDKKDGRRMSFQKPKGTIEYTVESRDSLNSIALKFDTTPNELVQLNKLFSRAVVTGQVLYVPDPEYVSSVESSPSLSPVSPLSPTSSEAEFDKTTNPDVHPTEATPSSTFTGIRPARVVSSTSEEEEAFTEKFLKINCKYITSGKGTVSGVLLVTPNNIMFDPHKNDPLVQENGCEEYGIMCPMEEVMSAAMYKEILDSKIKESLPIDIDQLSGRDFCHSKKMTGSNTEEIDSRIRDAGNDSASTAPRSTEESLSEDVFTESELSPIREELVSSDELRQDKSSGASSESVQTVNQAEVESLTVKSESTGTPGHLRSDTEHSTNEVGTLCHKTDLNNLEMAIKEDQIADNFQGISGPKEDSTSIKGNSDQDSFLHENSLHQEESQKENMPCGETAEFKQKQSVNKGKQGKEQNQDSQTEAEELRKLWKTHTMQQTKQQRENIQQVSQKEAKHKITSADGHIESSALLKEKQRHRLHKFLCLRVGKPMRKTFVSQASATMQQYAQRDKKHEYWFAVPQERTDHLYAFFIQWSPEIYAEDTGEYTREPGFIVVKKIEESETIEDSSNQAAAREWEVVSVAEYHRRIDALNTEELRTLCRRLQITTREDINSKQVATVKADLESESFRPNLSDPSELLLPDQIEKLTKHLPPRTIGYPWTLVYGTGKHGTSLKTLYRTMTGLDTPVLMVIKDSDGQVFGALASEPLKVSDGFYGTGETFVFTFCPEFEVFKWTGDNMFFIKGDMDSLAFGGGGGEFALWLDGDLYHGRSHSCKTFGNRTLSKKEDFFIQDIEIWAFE

What was measured:
Test in all cases: log2 fold change, soluble protein after heating vs DMSO (PISA); higher = thermal stabilisation; K562 lysate, 10 uM; active = over 0.2 and 3.5 SD of the protein, either way, in both replicates (recomputed)
[1] = compound: C1=CC=C(C=C1)[C@H](COC2=CC3=C(C=C2)NC(=O)N3)NC(=O)C4=CC=CN(C4=O)CC5=CC(=C(C=C5)F)F
Summary of the method: (§1)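 Dounce homogenisation of K562 pellets in PBS pH 7.4 with 1 mM MgCl2 produced a crude extract, used at 1 mg/mL protein. Exposure to 10 μM compound lasted 30 min, and aliquots were then heated for 3 min across 48°C-58°C, pooled and brought to 0.5% NP-40 at 4°C. The supernatant after 21,000xg for 90 min was quantified by TMTpro 16plex LC-MS/MS with channel sums equalised. Duplicate values are given as log-two fold change in thermal stability relative to solvent controls.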

[2] = compound: CC1=C(SC2=C1C(=N[C@H](C3=NN=C(N32)C)CC(=O)N)C4=CC=C(C=C4)Cl)C
Summary of the method: as §1

[3] = compound: CC1=C2C(=CC=C1)N=C(N(C2=O)C3=CC=CC=C3C)CN4C=NC5=C(N=CN=C54)N
Summary of the method: as §1

[4] = compound: Cc1sc2c(c1C)C(c1ccc(Cl)cc1)=N[C@@H](CC(=O)OC(C)(C)C)c1nnc(C)n1-2
Summary of the method: as §1

[5] = compound: c1ccc([C@@H]2C[C@H]2NC2CCNCC2)cc1
Summary of the method: as §1

Measured: log2 fold change

PABPC1 (UniProt P11940)
inactive: [1] -0.014 | [2] 0.002 | [3] 0.015 | [4] 0.082 | [5] 0.107

NUTF2 (UniProt P61970)
inactive: [1] -0.085 | [2] -0.031 | [3] -0.009 | [4] -0.011 | [5] 0.009

OGFOD2 (UniProt Q6N063)
inactive: [1] -0.079 | [2] 0.049 | [3] -0.07 | [4] 0.033 | [5] 0.076

PAK1IP1 (UniProt Q9NWT1)
inactive: [1] -0.011 | [2] 0.023 | [3] -0.068 | [4] -0.034 | [5] 0.026

OCIAD1 (UniProt D6RF01)
inactive: [1] 0.106 | [2] -0.095

OXA1L (UniProt Q15070)
inactive: [1] -0.038 | [2] 0.037 | [3] 0.005 | [4] 0.016 | [5] -0.007

Taken from above (2 entries):
PABPC1 (UniProt P11940)
inactive: [1] -0.014 | [2] 0.002 | [3] 0.015 | [4] 0.082 | [5] 0.107

NUTF2 (UniProt P61970)
inactive: [1] -0.085 | [2] -0.031 | [3] -0.009 | [4] -0.011 | [5] 0.009

(list continues)

OSGEP (UniProt Q9NPF4)
inactive: [1] -0.007 | [2] 0.031 | [3] 0.036 | [4] 0.063 | [5] 0.011

PACC1 (UniProt Q9H813)
inactive: [1] 0.078 | [2] -0.057 | [3] 0.222 | [4] -0.097 | [5] 0.002

PAOX (UniProt Q6QHF9)
inactive: [1] 0.18 | [2] 0.046

OXR1 (UniProt Q8N573)
inactive: [1] 0.106 | [2] 0.01 | [3] 0.019 | [4] -0.043 | [5] 0.021
